In the assay the target is T1, katanin-like 2 (KL2) (mouse (endogenous in mouse oocytes)) (UniProt Q9D3R6).
T1 sequence: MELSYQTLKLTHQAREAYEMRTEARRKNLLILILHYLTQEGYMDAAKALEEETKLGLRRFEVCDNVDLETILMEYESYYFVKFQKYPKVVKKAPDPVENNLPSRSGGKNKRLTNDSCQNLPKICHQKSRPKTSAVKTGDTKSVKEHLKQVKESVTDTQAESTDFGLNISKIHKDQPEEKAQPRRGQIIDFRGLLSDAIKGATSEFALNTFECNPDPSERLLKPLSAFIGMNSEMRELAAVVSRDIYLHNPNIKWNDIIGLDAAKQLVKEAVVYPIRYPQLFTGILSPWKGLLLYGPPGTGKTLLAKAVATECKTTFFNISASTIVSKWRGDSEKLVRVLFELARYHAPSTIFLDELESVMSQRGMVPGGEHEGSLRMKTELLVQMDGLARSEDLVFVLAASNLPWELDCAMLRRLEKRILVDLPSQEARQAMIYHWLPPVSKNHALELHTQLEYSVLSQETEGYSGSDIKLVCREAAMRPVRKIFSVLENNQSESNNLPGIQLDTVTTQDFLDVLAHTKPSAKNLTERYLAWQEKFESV
The experiment in a line: co-IP; endogenous proteins of mouse oocyte lysate (Fig. 4B and 4D); which protein was precipitated is not given.

These are yes or no findings as the source states them, for the method shown. In cells and extracts the contact can be indirect. Some binding calls cover weakened binding; strength is not graded here.

B1: phosphorylated eukaryotic elongation factor-2 kinase (p-eEF2K) (enzyme, UniProt O08796 1-724)
chain: MADEDLIFCLEGVDGGRCSRAGHNADSDTDSDDDEGYFICPITDDHMSNQNVSSKVQSYYSNLTKTECGSTGSPASSFHFKEAWKHAIEKAKHMPDPWAEFHLEDIATEHATRHRYNAVTGEWLKDEVLIKMASQPFGRGAMRECFRTKKLSNFLHAQQWKGASNYVAKRYIEPVDRSVYFEDVQLQMEAKLWGEDYNRHKPPKQVDIMQMCIIELKDRPGQPLFHLEHYIEGKYIKYNSNSGFVRDDNIRLTPQAFSHFTFERSGHQLIVVDIQGVGDLYTDPQIHTEKGTDFGDGNLGVRGMALFFYSHACNRICQSMGLTPFDLSPREQDAVNQSTRLLQSAKTILRGTEEKCGSPRIRTLSSSRPPLLLRLSENSGDENMSDVTFDSLPSSPSSATPHSQKLDHLHWPVFGDLDNMGPRDHDRMDNHRDSENSGDSGYPSEKRSDLDDPEPREHGHSNGNRRHESDEDSLGSSGRVCVETWNLLNPSRLHLPRPSAVALEVQRLNALDLGRKIGKSVLGKVHLAMVRYHEGGRFCEKDEEWDRESAIFHLEHAADLGELEAIVGLGLMYSQLPHHILADVSLKETEENKTKGFDYLLKAAEAGDRHSMILVARAFDTGLNLSPDRCQDWSEALHWYNTALETTDCDEGGEYDGIQDEPQYALLAREAEMLLTGGFGLDKNPQRSGDLYTQAAEAAMEAMKGRLANQYYEKAEEAWAQMEE
modifications: phosphorylated (site not stated)
For the molecule B1, the binding entry is recorded as “binds”.

B2: eukaryotic elongation factor-2 kinase (eEF2K) (enzyme, UniProt O08796 1-724)
chain: B1 chain
For B2, the binding entry was “binds”.

The record behind these values is paper PMC11461529.
